From the supplement of paper PMC8104966
The list shows a part of the results. Single values are uncertain here, since repeats match poorly.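 U2OS cells expressing ACE2 were combined with U2OS cells expressing full-length spike, and imaging quantified fusion as the fraction of nuclei displaying both cell types' fluorescent markers. Non-toxic compounds with a fusion z-score under -3, i.e., over three standard deviations below the plate's DMSO wells, are called inhibitory hits.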

These compounds were tested on U2OS ACE2 x SARS-CoV-2 spike co-culture (assay: cell-cell fusion (fraction fused) z-score vs plate DMSO control; higher = more fusion). Settings: 30 µM; 5 h; toxicity class: non-toxic, passed QC.

SMILES | cell-cell fusion (z-score)
NC1(C(=O)N[C@@H](CCO)c2ccc(Cl)cc2)CCN(c2ncnc3[nH]ccc23)CC1 | inactive: 0.277
NC(=O)N/N=C/c1ccc([N+](=O)[O-])o1 [Furacilin] | inactive: 3.26
CCCCCC(=O)Cc1cc(O)cc(O)c1C(=O)Oc1cc(CC(=O)CCCCC)c(C(=O)O)c(OC)c1 | inactive: 2.55
Cl.O=C(O)C1=CCNCC1 [Isoguvacine hydrochloride] | inactive: 3.15
Cl.Cl.O=C(O)COCCN1CCN(C(c2ccccc2)c2ccc(Cl)cc2)CC1 (stereo unspecified) [Cetirizine dihydrochloride] | inactive: 2.12
CC1=C(/C=C/C(C)=C/C=C/C(C)=C/C(=O)Nc2ccc(O)cc2)C(C)(C)CCC1 [Retinoic acid p-hydroxyanilide] | inactive: 3.32
CCCCNc1cc(C(=O)O)cc(S(N)(=O)=O)c1Oc1ccccc1 | inactive: 2.71
Cc1n[nH]c2ccc(-c3cncc(OC[C@@H](N)Cc4ccccc4)c3)cc12 | inactive: -0.138
O=P([O-])(O)C(O)(Cc1cccnc1)P(=O)(O)O.[Na+] | inactive: 2.08
Cc1[nH]c2ccc(O)cc2c1CCN.O=C(O)/C=C\C(=O)O [2-Methyl-5-hydroxytryptamine maleate] | inactive: 3.59
CC(=O)O[C@H]1C[C@@H](OC(C)=O)C(C)(C)C2CC(=O)[C@]3(C)C(CC[C@@]4(C)[C@H](C(=O)O)OC(=O)C5OC543)[C@]21C (stereo partly specified) | inactive: 2.16
O=C(O)CCC(C(=O)O)N1C(=O)c2ccccc2C1=O [L-Glutamic acid, N-phthaloyl-] | inactive: 1.09
Br.COc1ccccc1N1CCN(CCCCN2C(=O)c3ccccc3C2=O)CC1 [NAN-190 hydrobromide] | inactive: 1.5
CC1C/C=C/C=C/C=C/C=C/C(O[C@@H]2O[C@H](C)[C@@H](O)[C@H](N)[C@@H]2O)CC2OC(O)(CC(O)CC3OC3/C=C/C(=O)O1)CC(O)C2C(=O)O.NCCO (stereo partly specified) | inactive: 1.02
C=CCNc1ncnc2ccc(Br)cc12 | inactive: 0.853
CC(O)(CC(=O)O)CC(=O)O | inactive: 2.4
O=c1[nH]cc(F)c(=O)[nH]1 [5-Fluorouracil] | inactive: 2.54
O=c1[nH]cc(F)c(=O)[nH]1 | inactive: 2.15
COC[C@H]1OC(=O)c2coc3c2[C@@]1(C)C1=C(C3=O)[C@@H]2CCC(=O)[C@@]2(C)C[C@@H]1OC(C)=O [Wortmannin] | inactive: 0.254
CCn1cc(C(=O)[O-])c(=O)c2ccc(C)nc21.[Na+] [Nalidixic acid sodium] | inactive: 2.15
CCCNC(C)C(=O)Nc1c(C)csc1C(=O)OC.Cl (stereo unspecified) [Articaine HCl] | inactive: 3.66
CC(=O)[C@H]1CCC2C3CCC4=CC(=O)CC[C@]4(C)C3[C@H](OC(=O)CCC(=O)O)C[C@@]21C (stereo partly drawn) [11alpha-HYDROXYPROGESTERONE HEMISUCCINATE] | inactive: 2.44
CN(C)CC(=O)OC[C@@H](O)[C@@H](O)[C@H](O)[C@@H](O)C(=O)[O-].[Na+] | inactive: 1.88
CCCCCCCCCCCCCCCCC(C(=O)O)C(O)(CC(=O)O)C(=O)O (stereo unspecified) | inactive: 2.84

SMILES | cell-cell fusion (z-score)
CN1CCC(=C2c3ccccc3CC(=O)c3sccc32)CC1.O=C(O)/C=C/C(=O)O [Ketotifen fumarate] | inactive: 2.63
Cl.O=C(c1ccc(OCCCc2c[nH]cn2)cc1)C1CC1 [Ciproxifan hydrochloride] | inactive: 1.81
C[C@]12CC[C@H](O)C[C@@H]1CC[C@@H]1[C@@H]2CC[C@]2(C)[C@@H](O)CC[C@@H]12 [5alpha-ANDROSTAN-3beta,17beta-DIOL] | inactive: 2
COc1cccc(C=O)c1OC | inactive: 1.22
O=C([O-])CF.[Na+] | inactive: 3.11
COc1ccc(Cl)cc1NC(=O)Nc1cc(C)nc2ccccc12 | inactive: -1.13
CN(C)CCc1c[nH]c2ccc(C[C@H]3COC(=O)N3)cc12 | inactive: 2.09
C[C@]12CC[C@@H]3c4ccc(OC(=O)c5ccccc5)cc4CC[C@H]3[C@@H]1CC[C@@H]2O [Estradiol benzoate] | inactive: 1.42
S=C(Nc1ccccc1)Nc1nccs1 [1-Phenyl-3-(2-thiazolyl)-2-thiourea] | inactive: 1.32
CN=C(NC#N)NCCSCc1nc[nH]c1C [Cimetidine] | inactive: 2.22
CCOc1cc([C@@H](CS(C)(=O)=O)N2C(=O)c3cccc(NC(C)=O)c3C2=O)ccc1OC [Apremilast] | inactive: 1.86
NC(N)=Nc1nc(CSCC/C(N)=N/S(N)(=O)=O)cs1 [Famotidine] | inactive: 2.8
Cc1cn[nH]c1 [4-Methylpyrazole] | inactive: 3.24
NC(=O)Nc1cc(-c2cccc(F)c2)sc1C(=O)N[C@H]1CCCNC1 | inactive: 0.747
CCCCCCCCCCCCCCSCC(=O)O [Tetradecylthioacetic acid] | inactive: 0.506
O=C(O)CCCN1C(=O)c2cccc3cccc(c23)C1=O | inactive: 3.09
COc1cc2nc(N3CCN(C(=O)C4COc5ccccc5O4)CC3)nc(N)c2cc1OC.CS(=O)(=O)O (stereo unspecified) | inactive: 2.37
COc1cc2nc(N3CCN(C(=O)C4COc5ccccc5O4)CC3)nc(N)c2cc1OC.CS(=O)(=O)O (stereo unspecified) [Doxazosin mesylate] | inactive: -0.417
CC#C[C@@]1(O)CC[C@H]2[C@@H]3CCC4=CC(=O)CCC4=C3[C@H](c3ccc(N(C)C)cc3)C[C@@]21C [Mifepristone (Mifeprex)] | inactive: 1.44
CC(C)NCC(O)COc1cccc2ccccc12.Cl (racemic) | inactive: -1.92
O=C(Nc1c(Cl)c[n+]([O-])cc1Cl)c1ccc(OC(F)F)c(OCC2CC2)c1 [Roflumilast N-oxide] | inactive: 0.901
Nc1ncnc2[nH]cnc12 | inactive: 2.43
CC(=O)Nc1ccc(OC(C)=O)cc1 | inactive: -0.346
CCOC(=O)[C@H](CCc1ccccc1)N[C@H]1CCc2ccccc2N(CC(=O)O)C1=O.Cl [Benazepril hydrochloride] | inactive: 1.29

SMILES | cell-cell fusion (z-score)
Cc1c(C(=O)N2CCOc3ccc(-c4ccc(N)nc4)cc3C2)ccc(S(C)(=O)=O)c1F | inactive: 0.167
CCN(CC)CCNC(=O)c1cc(Cl)c(N)cc1OC.Cl [Metoclopramide hydrochloride] | inactive: 2.18
COc1ccccc1OCC(O)CO (stereo unspecified) [Guaifenesin] | inactive: 2.72
O=C(Nc1cnn2ccc(N3CCC[C@@H]3c3cc(F)ccc3F)nc12)N1CC[C@H](O)C1.O=S(=O)(O)O [Larotrectinib sulfate] | inactive: 1.96
CCN(CC)C(C)CN1c2ccccc2Sc2ccccc21.Cl (stereo unspecified) [Ethopropazine hydrochloride] | inactive: 2.56
CCN(CC)C(C)CN1c2ccccc2Sc2ccccc21.Cl (stereo unspecified) | inactive: 0.459
CCC(COC(=O)c1cc(OC)c(OC)c(OC)c1)(c1ccccc1)N(C)C.O=C(O)/C=C\C(=O)O (stereo unspecified) | inactive: 1.81
CCN(CC)CC#CCOC(=O)C(O)(c1ccccc1)C1CCCCC1.Cl (stereo unspecified) [Oxybutynin hydrochloride] | inactive: 3.38
Cl.O=C1CN2Cc3c(ccc(Cl)c3Cl)NC2=N1 [Anagrelide hydrochloride] | inactive: 1.55
COC(=O)C(N)Cc1ccc(Cl)cc1.Cl (racemic) [DL-p-Chlorophenylalanine methyl ester hydrochloride] | inactive: 0.812
CNCCCC1c2ccccc2C=Cc2ccccc21.Cl [Protriptyline hydrochloride] | inactive: 2.82
C[N+]1(C)CCCC(OC(=O)C(O)(c2ccccc2)c2ccccc2)C1.[Br-] (stereo unspecified) | inactive: 1.44
C[C@@H]1CCN(C(=O)CC#N)C[C@@H]1N(C)c1ncnc2[nH]ccc12.O=C(O)CC(O)(CC(=O)O)C(=O)O [Tofacitinib Citrate] | inactive: 2.22
CC(C)NC[C@H](O)c1ccc(O)c(O)c1.Cl [(-)-Isoproterenol hydrochloride] | inactive: -0.0274
CC1=C(/C=C/C(C)=C/C=C/C(C)=C/C(=O)O)C(C)(C)CCC1 | inactive: 2.51
CC1=C(/C=C/C(C)=C/C=C/C(C)=C/C(=O)O)C(C)(C)CCC1 [Retinoic acid] | inactive: 0.864
CCN1CCN(C(=O)NC(C(=O)N[C@@H]2C(=O)N3[C@@H]2SC(C)(C)[C@@H]3C(=O)[O-])c2ccccc2)C(=O)C1=O.[Na+] (stereo partly specified) | inactive: 1.81
NC(=O)NC(=O)Cc1ccccc1 | inactive: 0.129
Cl.O=c1n(CCCN2CCN(c3cccc(Cl)c3)CC2)nc2ccccn12 [Trazodone hydrochloride] | inactive: 2.69
Cl.O=c1n(CCCN2CCN(c3cccc(Cl)c3)CC2)nc2ccccn12 | inactive: 1.78
C[N+](C)(C)CCO.[Cl-] | inactive: 2.97
C[N+](C)(C)CCO.[Cl-] [Choline chloride] | inactive: 1.45
COc1c(Cl)c(C)c(C(=O)Oc2cc(C)c(C(=O)O)c(O)c2)c(O)c1Cl | inactive: 4.28

An excerpt of these results, field by field:
COc1ccc(Cl)cc1NC(=O)Nc1cc(C)nc2ccccc12
  cell-cell fusion (z-score): inactive: -1.13
CN(C)CCc1c[nH]c2ccc(C[C@H]3COC(=O)N3)cc12
  cell-cell fusion (z-score): inactive: 2.09
C[C@]12CC[C@@H]3c4ccc(OC(=O)c5ccccc5)cc4CC[C@H]3[C@@H]1CC[C@@H]2O [Estradiol benzoate]
  cell-cell fusion (z-score): inactive: 1.42
